The other results are listed elsewhere or left out.
Experiments:
Assay in all cases: log2 fold change, soluble protein after heating vs DMSO (PISA); higher = thermal stabilisation; K562 cells, 10 uM, 30 min; active = over 0.2 and 3.5 SD of the protein, either way, in both replicates (recomputed)
erlotinib = compound: C#Cc1cccc(Nc2ncnc3cc(OCCOC)c(OCCOC)cc23)c1 [erlotinib]
In short: (§1)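 Soluble protein was defined as the supernatant after 21,000xg for 90 min. It came from K562 cells at 2×10^6 cells/mL given 10 μM compound for 30 min, heated in aliquots for 3 min across 48°C-58°C, pooled, and extracted in PBS with 0.5% NP-40 at 4°C, and was quantified by TMTpro 16plex LC-MS/MS with equalised channel sums. Thermal stability against control samples, from duplicates, is reported as log2 fold change.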

Amino acid sequences for entries named in this document (tags omitted). A change or cut given only in a name is not applied to a line headed by its entry.
UniProt Q71SY5: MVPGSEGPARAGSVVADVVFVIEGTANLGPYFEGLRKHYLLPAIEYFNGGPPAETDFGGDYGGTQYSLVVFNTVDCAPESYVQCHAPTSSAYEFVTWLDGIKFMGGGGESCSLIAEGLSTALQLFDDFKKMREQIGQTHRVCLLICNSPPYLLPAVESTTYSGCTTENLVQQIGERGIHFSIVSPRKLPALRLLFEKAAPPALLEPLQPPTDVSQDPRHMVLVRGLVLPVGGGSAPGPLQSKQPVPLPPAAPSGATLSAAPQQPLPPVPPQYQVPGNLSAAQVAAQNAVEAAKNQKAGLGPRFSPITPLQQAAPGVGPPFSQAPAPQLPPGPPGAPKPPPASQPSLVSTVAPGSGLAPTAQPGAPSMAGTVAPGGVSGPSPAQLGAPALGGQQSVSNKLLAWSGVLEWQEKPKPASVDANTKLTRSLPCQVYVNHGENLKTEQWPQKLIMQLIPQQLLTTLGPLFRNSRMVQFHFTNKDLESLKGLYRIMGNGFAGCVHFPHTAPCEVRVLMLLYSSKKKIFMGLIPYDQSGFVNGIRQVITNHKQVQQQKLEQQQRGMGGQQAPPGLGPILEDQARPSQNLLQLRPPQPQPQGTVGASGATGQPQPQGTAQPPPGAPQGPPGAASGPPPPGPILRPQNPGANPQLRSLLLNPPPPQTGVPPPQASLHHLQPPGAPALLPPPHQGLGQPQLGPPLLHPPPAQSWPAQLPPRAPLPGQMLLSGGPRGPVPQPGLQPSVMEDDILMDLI
UniProt P40926: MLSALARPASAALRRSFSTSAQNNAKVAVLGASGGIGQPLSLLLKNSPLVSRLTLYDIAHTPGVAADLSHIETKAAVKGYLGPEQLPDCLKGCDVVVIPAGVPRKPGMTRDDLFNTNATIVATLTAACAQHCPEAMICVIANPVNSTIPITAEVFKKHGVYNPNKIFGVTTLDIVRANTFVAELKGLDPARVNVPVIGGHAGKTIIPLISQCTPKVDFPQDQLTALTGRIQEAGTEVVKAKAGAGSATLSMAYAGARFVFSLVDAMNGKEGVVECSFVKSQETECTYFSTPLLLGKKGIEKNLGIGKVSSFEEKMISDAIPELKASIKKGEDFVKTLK
UniProt P43121, whole entry, looked up: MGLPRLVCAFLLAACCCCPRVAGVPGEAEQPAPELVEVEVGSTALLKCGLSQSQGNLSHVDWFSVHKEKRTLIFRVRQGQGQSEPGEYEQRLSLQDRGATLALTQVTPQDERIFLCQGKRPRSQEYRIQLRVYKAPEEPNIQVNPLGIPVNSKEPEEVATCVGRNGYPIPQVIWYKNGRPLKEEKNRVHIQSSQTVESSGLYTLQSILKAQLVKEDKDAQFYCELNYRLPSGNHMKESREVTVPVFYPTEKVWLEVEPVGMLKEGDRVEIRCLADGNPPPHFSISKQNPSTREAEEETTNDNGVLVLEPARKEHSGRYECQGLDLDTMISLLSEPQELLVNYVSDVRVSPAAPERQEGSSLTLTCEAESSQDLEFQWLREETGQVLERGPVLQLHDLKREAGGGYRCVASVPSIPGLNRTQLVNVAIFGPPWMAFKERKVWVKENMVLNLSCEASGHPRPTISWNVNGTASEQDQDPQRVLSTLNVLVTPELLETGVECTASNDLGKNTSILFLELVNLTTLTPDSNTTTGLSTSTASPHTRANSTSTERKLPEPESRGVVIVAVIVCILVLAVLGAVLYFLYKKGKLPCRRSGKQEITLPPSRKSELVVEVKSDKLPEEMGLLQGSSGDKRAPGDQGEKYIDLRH
UniProt O43513: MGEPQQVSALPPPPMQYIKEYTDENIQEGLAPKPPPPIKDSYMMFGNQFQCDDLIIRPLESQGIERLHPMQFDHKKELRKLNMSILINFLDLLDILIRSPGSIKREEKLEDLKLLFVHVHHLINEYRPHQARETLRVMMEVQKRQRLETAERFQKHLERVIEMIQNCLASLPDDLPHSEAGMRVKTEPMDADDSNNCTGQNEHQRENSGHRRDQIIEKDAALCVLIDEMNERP
UniProt Q5SR56: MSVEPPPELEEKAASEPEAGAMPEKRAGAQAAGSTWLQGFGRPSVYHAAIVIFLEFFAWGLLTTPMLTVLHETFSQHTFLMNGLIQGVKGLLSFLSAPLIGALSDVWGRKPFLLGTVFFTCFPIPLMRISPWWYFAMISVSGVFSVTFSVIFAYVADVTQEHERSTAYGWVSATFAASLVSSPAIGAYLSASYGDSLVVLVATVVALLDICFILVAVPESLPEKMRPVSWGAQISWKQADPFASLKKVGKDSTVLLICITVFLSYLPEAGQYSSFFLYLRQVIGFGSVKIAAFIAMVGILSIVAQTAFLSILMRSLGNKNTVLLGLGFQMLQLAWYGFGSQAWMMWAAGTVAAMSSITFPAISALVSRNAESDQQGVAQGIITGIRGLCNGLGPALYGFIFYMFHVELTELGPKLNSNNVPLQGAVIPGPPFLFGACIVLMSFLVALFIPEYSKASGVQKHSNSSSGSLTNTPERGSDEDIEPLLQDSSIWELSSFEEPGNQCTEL
UniProt Q9NS73: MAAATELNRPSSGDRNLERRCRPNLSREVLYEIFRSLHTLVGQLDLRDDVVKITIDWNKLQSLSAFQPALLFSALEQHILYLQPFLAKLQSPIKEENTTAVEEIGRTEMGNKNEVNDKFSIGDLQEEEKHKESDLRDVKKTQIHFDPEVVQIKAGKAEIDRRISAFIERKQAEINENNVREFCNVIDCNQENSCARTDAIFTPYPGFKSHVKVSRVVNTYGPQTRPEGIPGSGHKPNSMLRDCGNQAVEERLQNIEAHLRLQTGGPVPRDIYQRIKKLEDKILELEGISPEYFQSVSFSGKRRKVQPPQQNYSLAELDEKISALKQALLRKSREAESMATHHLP
UniProt Q9NVC6: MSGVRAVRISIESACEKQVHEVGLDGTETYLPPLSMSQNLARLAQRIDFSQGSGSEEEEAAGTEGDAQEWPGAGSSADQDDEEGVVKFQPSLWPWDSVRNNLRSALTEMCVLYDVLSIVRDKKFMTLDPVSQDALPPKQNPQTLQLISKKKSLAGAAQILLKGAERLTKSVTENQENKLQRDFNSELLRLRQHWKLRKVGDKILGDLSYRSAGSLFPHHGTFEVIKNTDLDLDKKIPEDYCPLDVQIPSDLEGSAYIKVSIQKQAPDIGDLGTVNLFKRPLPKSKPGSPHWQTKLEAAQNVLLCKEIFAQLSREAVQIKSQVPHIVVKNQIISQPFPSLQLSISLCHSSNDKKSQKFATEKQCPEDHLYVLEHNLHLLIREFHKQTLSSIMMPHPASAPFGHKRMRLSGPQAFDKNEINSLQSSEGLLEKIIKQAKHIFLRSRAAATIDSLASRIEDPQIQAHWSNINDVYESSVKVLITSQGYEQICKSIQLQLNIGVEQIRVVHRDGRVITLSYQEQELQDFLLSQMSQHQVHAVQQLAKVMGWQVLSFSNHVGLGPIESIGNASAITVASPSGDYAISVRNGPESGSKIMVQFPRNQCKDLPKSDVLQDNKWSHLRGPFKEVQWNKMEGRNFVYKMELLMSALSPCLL
UniProt Q6P2C8: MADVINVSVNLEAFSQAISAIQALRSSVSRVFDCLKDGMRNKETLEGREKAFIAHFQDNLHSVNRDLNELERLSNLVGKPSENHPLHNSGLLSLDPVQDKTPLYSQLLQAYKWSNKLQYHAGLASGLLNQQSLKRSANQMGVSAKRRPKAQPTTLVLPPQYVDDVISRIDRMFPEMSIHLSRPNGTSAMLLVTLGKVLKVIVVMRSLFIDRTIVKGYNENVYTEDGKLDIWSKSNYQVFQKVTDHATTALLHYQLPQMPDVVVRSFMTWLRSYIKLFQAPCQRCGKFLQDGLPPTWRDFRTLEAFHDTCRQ
UniProt Q9BUE0: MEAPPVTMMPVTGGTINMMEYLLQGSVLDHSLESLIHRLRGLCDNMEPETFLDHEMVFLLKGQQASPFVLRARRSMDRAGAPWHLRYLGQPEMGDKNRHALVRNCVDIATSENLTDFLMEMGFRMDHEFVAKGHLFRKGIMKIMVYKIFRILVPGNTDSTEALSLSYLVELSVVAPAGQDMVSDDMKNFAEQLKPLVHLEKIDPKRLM
UniProt Q12866: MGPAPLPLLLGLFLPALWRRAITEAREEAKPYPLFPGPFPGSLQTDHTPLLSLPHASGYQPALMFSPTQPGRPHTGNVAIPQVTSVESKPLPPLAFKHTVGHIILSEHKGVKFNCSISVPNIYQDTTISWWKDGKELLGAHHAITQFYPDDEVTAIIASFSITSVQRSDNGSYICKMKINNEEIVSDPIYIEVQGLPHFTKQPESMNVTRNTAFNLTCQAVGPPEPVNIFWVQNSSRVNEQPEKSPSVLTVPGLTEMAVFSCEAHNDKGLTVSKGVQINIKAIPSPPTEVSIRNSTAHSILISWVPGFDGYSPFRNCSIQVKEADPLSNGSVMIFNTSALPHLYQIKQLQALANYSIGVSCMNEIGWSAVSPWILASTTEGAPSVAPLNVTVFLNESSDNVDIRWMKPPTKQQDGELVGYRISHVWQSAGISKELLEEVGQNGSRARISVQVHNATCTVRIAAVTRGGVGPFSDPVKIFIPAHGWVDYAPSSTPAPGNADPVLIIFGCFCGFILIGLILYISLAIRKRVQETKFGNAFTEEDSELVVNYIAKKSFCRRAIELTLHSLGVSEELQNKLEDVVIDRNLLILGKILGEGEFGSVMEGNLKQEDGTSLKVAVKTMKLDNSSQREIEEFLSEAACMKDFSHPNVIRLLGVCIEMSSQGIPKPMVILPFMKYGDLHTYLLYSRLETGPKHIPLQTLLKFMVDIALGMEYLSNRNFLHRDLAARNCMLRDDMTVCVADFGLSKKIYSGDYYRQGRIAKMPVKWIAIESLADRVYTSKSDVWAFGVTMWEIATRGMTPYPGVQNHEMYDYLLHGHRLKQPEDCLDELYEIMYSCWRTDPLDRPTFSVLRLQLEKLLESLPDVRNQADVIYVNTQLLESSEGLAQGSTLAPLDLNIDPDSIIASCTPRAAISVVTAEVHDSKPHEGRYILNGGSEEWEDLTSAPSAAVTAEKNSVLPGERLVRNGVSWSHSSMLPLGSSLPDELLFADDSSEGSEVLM
UniProt Q8TCB7: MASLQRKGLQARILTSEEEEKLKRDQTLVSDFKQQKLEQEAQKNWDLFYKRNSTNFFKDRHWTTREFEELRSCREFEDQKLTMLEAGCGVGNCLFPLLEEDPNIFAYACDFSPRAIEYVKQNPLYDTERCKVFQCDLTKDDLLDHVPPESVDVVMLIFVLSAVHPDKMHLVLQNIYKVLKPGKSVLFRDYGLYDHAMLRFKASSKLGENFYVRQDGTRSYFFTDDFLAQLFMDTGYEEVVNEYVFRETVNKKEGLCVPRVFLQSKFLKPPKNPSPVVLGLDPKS
UniProt Q6UX53: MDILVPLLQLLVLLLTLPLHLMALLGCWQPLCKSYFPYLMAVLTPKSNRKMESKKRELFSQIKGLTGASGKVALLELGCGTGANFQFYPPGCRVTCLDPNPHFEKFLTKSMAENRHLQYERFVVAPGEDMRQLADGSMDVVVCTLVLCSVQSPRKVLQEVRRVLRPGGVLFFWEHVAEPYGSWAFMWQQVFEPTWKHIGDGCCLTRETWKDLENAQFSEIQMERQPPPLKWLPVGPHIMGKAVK
UniProt Q6ZSS7: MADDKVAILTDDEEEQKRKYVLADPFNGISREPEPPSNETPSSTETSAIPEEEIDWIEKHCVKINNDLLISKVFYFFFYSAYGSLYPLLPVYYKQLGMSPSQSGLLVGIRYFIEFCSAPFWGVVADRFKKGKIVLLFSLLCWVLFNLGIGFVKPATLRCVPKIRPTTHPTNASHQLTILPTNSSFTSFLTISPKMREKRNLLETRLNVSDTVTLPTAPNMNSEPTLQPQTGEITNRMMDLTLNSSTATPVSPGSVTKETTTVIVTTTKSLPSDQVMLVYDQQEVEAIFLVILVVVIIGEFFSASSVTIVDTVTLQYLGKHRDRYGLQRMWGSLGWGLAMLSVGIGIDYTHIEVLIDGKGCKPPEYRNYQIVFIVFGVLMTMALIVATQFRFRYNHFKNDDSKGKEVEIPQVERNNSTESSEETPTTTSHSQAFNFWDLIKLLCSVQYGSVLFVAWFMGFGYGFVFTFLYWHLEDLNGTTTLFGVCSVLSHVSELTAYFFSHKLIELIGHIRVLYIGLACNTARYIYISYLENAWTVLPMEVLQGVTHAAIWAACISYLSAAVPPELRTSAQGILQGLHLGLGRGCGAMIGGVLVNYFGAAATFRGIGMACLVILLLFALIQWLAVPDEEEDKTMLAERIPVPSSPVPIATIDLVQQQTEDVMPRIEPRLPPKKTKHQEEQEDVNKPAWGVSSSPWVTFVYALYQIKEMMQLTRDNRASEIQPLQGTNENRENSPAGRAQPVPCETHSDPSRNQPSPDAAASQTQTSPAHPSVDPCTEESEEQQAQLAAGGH
UniProt Q13503: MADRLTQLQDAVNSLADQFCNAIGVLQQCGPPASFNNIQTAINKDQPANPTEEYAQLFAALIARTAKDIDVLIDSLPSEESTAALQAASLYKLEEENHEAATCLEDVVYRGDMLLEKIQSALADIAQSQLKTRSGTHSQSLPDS

[1] = compound: C/C(=N\NC(=O)C1=CC(=CC=C1)S(=O)(=O)N2CCOCC2)/C3=C(C=CC(=C3)Cl)O
In short: as §1

[2] = compound: C1=CC(=C(C=C1Cl)C2=NC3=NC=CN=C3C(=N2)NC4=CC=NC=C4)F
In short: as §1

[3] = compound: C1=CC(=CC=C1C2=NC3=C(N2)C=C(C=C3)C(=O)N)OC4=CC=C(C=C4)Cl
In short: as §1

[4] = compound: C1=CC2=C(C=CC(=C2)/C=C\3/C(=O)NC(=NCC4=CC=CS4)S3)N=C1
In short: as §1

[5] = compound: C1=CC2=NC=CN=C2C=C1/C=C/3\C(=O)NC(=O)S3
In short: as §1

[6] = compound: C1=CC=C(C=C1)C2=NC(=C(N2)C3=CC=NC=C3)C4=CC(=C(C=C4)Cl)O
In short: as §1

[7] = compound: C1=CC=C2C(=C1)C3=NNC4=CC=CC(=C43)C2=O
In short: as §1

[8] = compound: C1CCN(C1)C(=O)NC2=CC=CC(=C2)NC3=NC=C(C(=N3)NCCC4=CN=CN4)Br
In short: as §1

[9] = compound: C1CN(CCC1(CC2=CC=C(C=C2)Cl)N)C3=NC=NC4=C3C=CN4
In short: as §1

Measured: log2 fold change

MIA3 (UniProt Q5JRA6)
inactive: erlotinib 0.008 | [1] 0.004 | [2] 0.014 | [3] -0.021 | [4] -0.029 | [5] 0.005 | [6] -0.043 | [7] -0.083 | [8] 0.014 | [9] -0.006

MED25 isoform 3 (UniProt Q71SY5)
inactive: erlotinib -0.038 | [1] 0.026 | [3] 0.005 | [4] 0.048 | [5] -0.031 | [6] 0.062 | [7] 0.057 | [8] 0.057 | [9] 0.07

MDH2 (UniProt P40926)
inactive: erlotinib -0.041 | [1] 0.012 | [2] 0.018 | [3] 0.013 | [4] -0.026 | [5] -0.013 | [6] -0.025 | [7] -0.002 | [8] 0.032 | [9] 0.052

MED12 isoform 2 (UniProt Q93074)
inactive: erlotinib 0.022 | [1] 0.04 | [2] -0.031 | [3] 0.188 | [4] 0.101 | [5] 0.121 | [6] 0.012 | [7] -0.361 | [8] 0.193 | [9] -0.11

MCAM (UniProt P43121)
inactive: erlotinib 0.022 | [1] -0.033 | [2] 0.008 | [3] 0.002 | [4] 0.014 | [5] 0.017 | [6] -0.061 | [7] -0.042 | [8] -0.031 | [9] 0.076

MELK (UniProt Q14680)
inactive: erlotinib 0.067 | [1] -0.067 | [2] 0.018 | [3] 0.027 | [4] 0.033 | [5] 0.009 | [7] 0.031 | [8] -0.027 | [9] -0.086

MED7 (UniProt O43513)
inactive: erlotinib 0.065 | [1] -0.109 | [2] 0.041 | [3] 0.053 | [4] 0.065 | [5] 0.015 | [6] 0.017 | [7] -0.152 | [8] -0.114 | [9] 0.039

MFSD14B (UniProt Q5SR56)
inactive: erlotinib -0.047 | [1] -0.023 | [2] -0.016 | [3] 0.049 | [4] -0.041 | [7] 0.003 | [8] -0.02 | [9] 0.013

MBIP (UniProt Q9NS73)
inactive: erlotinib 0.033 | [1] -0.115 | [3] -0.298 | [4] -0.02 | [5] -0.01 | [6] -0.029 | [7] -0.052 | [8] -0.071 | [9] -0.103

MED17 (UniProt Q9NVC6)
inactive: erlotinib 0.017 | [1] 0.064 | [2] -0.077 | [3] 0.072 | [4] -0.083 | [6] 0.094 | [7] -0.034 | [8] -0.194 | [9] -0.047

2 entries drawn at random from the list so far, as already listed:
MIA3 (UniProt Q5JRA6)
inactive: erlotinib 0.008 | [1] 0.004 | [2] 0.014 | [3] -0.021 | [4] -0.029 | [5] 0.005 | [6] -0.043 | [7] -0.083 | [8] 0.014 | [9] -0.006

MCAM (UniProt P43121)
inactive: erlotinib 0.022 | [1] -0.033 | [2] 0.008 | [3] 0.002 | [4] 0.014 | [5] 0.017 | [6] -0.061 | [7] -0.042 | [8] -0.031 | [9] 0.076

Following part

MED27 (UniProt Q6P2C8)
inactive: erlotinib 0.033 | [1] 0.118 | [2] -0.133 | [3] -0.138 | [4] 0.101 | [5] 0.347 | [7] -0.151

MEA1 (UniProt Q16626)
inactive: erlotinib -0.094 | [1] -0.031 | [2] 0.026 | [3] 0.064 | [4] 0.1 | [5] -0.08 | [6] -0.034 | [7] -0.013 | [8] -0.017 | [9] -0.004

MED18 (UniProt Q9BUE0)
inactive: erlotinib -0.072 | [1] 0.049 | [2] 0.072 | [3] 0.014 | [4] 0.023 | [5] 0.081 | [6] 0.049 | [7] -0.004 | [8] 0.002 | [9] -0.008

MERTK (UniProt Q12866)
inactive: erlotinib 0.113 | [1] 0.019 | [2] 0.035 | [3] -0.031 | [4] -0.08 | [5] 0.041 | [7] 0.092 | [8] 0.011 | [9] 0.035

MCUR1 (UniProt Q96AQ8)
inactive: erlotinib -0.012 | [1] -0.03 | [2] 0.055 | [3] 0.003 | [4] 0.053 | [5] -0.006 | [6] 0.102 | [7] 0.005 | [8] -0.023 | [9] 0.063

MED28 (UniProt Q9H204)
inactive: erlotinib -0.058 | [1] 0.026 | [3] 0.062 | [4] 0.147 | [5] -0.025 | [6] 0.032 | [7] -0.018 | [8] -0.244 | [9] 0.028

MED23 (UniProt Q9ULK4)
inactive: erlotinib -0.01 | [1] 0.045 | [2] 0.03 | [3] 0.002 | [4] 0.11 | [5] 0.031 | [6] -0.032 | [7] 0.061 | [8] -0.049 | [9] 0.02

MEMO1 (UniProt Q9Y316)
inactive: erlotinib 0.062 | [1] 0.101 | [2] 0.056 | [3] 0.039 | [4] -0.016 | [5] 0.018 | [6] 0.03 | [7] 0.035 | [8] -0.008 | [9] 0.044

METTL6 (UniProt Q8TCB7)
inactive: erlotinib 0.02 | [1] -0.038 | [2] -0.413 | [3] -0.034 | [4] 0.088 | [5] 0.131 | [7] -0.09 | [8] 0.102 | [9] 0.053

METTL7B (UniProt Q6UX53)
inactive: erlotinib -0.069 | [1] 0.161 | [2] -0.058 | [3] -0.151 | [4] -0.042 | [7] 0.088

METTL25 (UniProt Q8N6Q8)
inactive: erlotinib 0.128 | [1] -0.088 | [2] -0.134 | [3] -0.065 | [4] -0.117 | [5] 0.153 | [7] -0.011

MBLAC1 (UniProt A4D2B0)
inactive: erlotinib 0.074 | [1] -0.042 | [3] 0.026 | [4] 0.036 | [5] 0.019 | [6] 0.002 | [7] -0.024

MEAF6 isoform 3 (UniProt Q9HAF1)
inactive: erlotinib -0.028 | [1] -0.039 | [2] -0.129 | [3] 0.013 | [4] -0.04 | [5] -0.007 | [6] -0.088 | [7] -0.009 | [8] -0.065 | [9] 0.041

MCU (UniProt Q8NE86)
inactive: erlotinib 0.007 | [1] 0.042 | [2] 0.083 | [3] 0.008 | [4] 0.027 | [5] 0.013 | [6] 0.001 | [7] 0.014 | [8] 0.004 | [9] 0.013

ME2 (UniProt P23368)
inactive: erlotinib -0.017 | [1] -0.017 | [2] 0.01 | [3] -0.078 | [4] 0.036 | [5] -0.024 | [6] 0.055 | [7] -0.061 | [8] 0.008 | [9] 0.081

MFSD6 (UniProt Q6ZSS7)
inactive: erlotinib -0.021 | [1] -0.033 | [2] 0.03 | [3] -0.004 | [4] 0.004 | [5] 0.094 | [7] -0.106

MCRIP2 (UniProt Q9BUT9)
inactive: erlotinib 0.015 | [2] 0.113 | [3] 0.043 | [5] 0.022 | [6] 0.066 | [8] -0.456 | [9] -0.069

MFHAS1 (UniProt Q9Y4C4)
inactive: [1] -0.43 | [4] 0.17 | [5] -0.036 | [6] -0.102 | [7] 0.008 | [8] 0.139 | [9] 0.136

MEX3B (UniProt Q6ZN04)
inactive: erlotinib 0.052 | [3] 0.061 | [5] 0.09 | [6] 0.163 | [8] 0.099 | [9] -0.267

MBNL2 (UniProt Q5VZF2)
inactive: erlotinib 0.132 | [1] -0.013 | [3] -0.053 | [4] -0.053 | [6] -0.027 | [7] -0.013

MED19 (UniProt A0JLT2)
inactive: [2] -0.185 | [5] 0.05 | [6] -0.052

MED21 (UniProt Q13503)
inactive: [1] -0.006 | [4] 0.155 | [6] 0.129 | [7] 0.059 | [8] -0.18 | [9] 0.09

Source: the supplement of paper PMC10849652
